The source of these data is publication PMC3422280.

These are yes or no findings as the source states them, for the method shown. Binding seen in cells or lysates may run through a third protein. Some binding calls cover weakened binding; strength is not graded here.

In the assay the target is endogenous p53 of U2OS cells (human (endogenous in U2OS)) (UniProt P04637). The experiment in a line: co-IP; U2OS nuclear extracts precipitated with anti-p53 or anti-OKL38 antibody (normal mouse or rabbit IgG as control); blots for p53 and OKL38.

B1: endogenous OKL38 of U2OS cells (protein, UniProt Q9UJX0 1-477)
chain: MSSSRKDHLGASSSEPLPVIIVGNGPSGICLSYLLSGYTPYTKPDAIHPHPLLQRKLTEAPGVSILDQDLDYLSEGLEGRSQSPVALLFDALLRPDTDFGGNMKSVLTWKHRKEHAIPHVVLGRNLPGGAWHSIEGSMVILSQGQWMGLPDLEVKDWMQKKRRGLRNSRATAGDIAHYYRDYVVKKGLGHNFVSGAVVTAVEWGTPDPSSCGAQDSSPLFQVSGFLTRNQAQQPFSLWARNVVLATGTFDSPARLGIPGEALPFIHHELSALEAATRVGAVTPASDPVLIIGAGLSAADAVLYARHYNIPVIHAFRRAVDDPGLVFNQLPKMLYPEYHKVHQMMREQSILSPSPYEGYRSLPRHQLLCFKEDCQAVFQDLEGVEKVFGVSLVLVLIGSHPDLSFLPGAGADFAVDPDQPLSAKRNPIDVDPFTYQSTRQEGLYAMGPLAGDNFVRFVQGGALAVASSLLRKETRKPP
Take B1: the binding result is “binds”.
